Chains of the proteins cited; added tags and fusions are not shown. Residues count along the entry.
UniProt P35503, 29-534: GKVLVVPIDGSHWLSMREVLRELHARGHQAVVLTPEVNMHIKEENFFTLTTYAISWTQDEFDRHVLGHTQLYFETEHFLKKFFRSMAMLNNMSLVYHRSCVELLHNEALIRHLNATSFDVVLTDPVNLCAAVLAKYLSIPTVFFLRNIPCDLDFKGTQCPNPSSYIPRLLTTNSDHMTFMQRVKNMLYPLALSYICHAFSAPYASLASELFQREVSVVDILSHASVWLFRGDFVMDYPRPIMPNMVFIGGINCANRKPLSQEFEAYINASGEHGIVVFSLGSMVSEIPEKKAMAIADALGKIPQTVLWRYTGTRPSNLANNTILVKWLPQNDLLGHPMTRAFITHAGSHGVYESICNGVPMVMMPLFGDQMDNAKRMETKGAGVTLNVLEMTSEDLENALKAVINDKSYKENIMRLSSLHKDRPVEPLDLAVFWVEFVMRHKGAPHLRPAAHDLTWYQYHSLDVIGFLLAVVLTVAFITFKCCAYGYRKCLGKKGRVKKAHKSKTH
UniProt P08684, 2-503 limits assumed: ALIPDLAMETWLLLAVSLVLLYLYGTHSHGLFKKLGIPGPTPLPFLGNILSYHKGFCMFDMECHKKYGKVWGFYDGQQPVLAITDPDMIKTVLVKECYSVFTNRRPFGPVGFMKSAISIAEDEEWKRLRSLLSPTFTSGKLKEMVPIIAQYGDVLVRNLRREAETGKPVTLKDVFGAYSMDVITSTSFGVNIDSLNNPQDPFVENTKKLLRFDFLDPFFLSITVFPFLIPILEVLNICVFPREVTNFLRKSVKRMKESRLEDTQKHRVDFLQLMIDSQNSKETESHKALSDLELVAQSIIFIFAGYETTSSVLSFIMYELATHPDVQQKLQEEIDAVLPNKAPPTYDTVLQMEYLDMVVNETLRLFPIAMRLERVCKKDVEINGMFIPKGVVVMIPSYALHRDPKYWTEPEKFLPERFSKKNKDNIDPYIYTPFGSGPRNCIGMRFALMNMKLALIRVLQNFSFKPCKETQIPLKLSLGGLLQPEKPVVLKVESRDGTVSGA

According to PMC3117731, “A systems biology approach to dynamic modeling and inter-subject variability of statin pharmacokinetics in human hepatocytes” (BMC Systems Biology, 2011):

What was measured:
[1] = test system: primary human hepatocytes; test: Apparent (lumped active transport and passive diffusion) import and export in primary human hepatocytes; format: in vitro ADME
Excerpt: Thus, in the following, mechanisms of active transport and passive diffusion are lumped, resulting in the apparent transport rate for import,(12) [drawing 22]
and in the apparent transport rate for export(13) [drawing 23]
described by the product of apparent rate constant κ im/ex of import or export and extra- or intracellular concentration [drawing 24] , respectively (Figure 3). Consequently, the rate constants κ of import and export are set individually, and were to be estimated in the optimization procedure.

[2] = test system: OATP1B1; conditions: read-out: KM,1B1 (Michaelis-Menten constant of OATP1B1 import); recombinant; fixed in the optimization; cited from earlier work
[3] = test system: OATP2B1; conditions: read-out: KM,2B1 (Michaelis-Menten constant of OATP2B1 import); recombinant; fixed in the optimization; cited from earlier work
[4] = target: UGT1A3 (Homo sapiens, UniProt P35503); conditions: human liver microsomes, substrate inhibition kinetics, fixed in the optimization, cited from earlier work
[5] = clinical studies in humans; cited from earlier work
[6] = target: CYP3A4 (Homo sapiens, UniProt P08684); conditions: CYP3A4 mediated hydroxylation of AS on human microsomes; cited from earlier work
[7] = Individual 1, nominal value from optimization
[8] = Individual 2, nominal value from optimization
[9] = Individual 3, nominal value from optimization

## CC(C)c1c(C(=O)Nc2ccccc2)c(-c2ccccc2)c(-c2ccc(F)cc2)n1CC[C@@H](O)C[C@@H](O)CC(=O)O [AS, atorvastatin acid, reference compound]
[1]; [7]
  κex (apparent rate constant of export): 2.17 µL/min
  κim (apparent rate constant of import): 20.3 µL/min
[1]; [8]
  κex (apparent rate constant of export): 0.16 µL/min
  κim (apparent rate constant of import): 4.42 µL/min
[1]; [9]
  κex (apparent rate constant of export): 0.17 µL/min
  κim (apparent rate constant of import): 3.45 µL/min
[2]
  Km: 18.9 µM
[3]
  Km: 0.2 µM
[4]; read-out: KI,1A3 (KI of UGT1A3-lactonization, substrate inhibition)
  Ki: 75 µM
[4]; read-out: KM,1A3 (KM of UGT1A3-lactonization)
  Km: 12 µM
[5]
  plasma concentrations observed: lower than 200 pmol ml^-1
[6]
  concentration above which substrate inhibition effects contribute severely: higher than 100 μM
